Measurements taken from patent US10155987B2, “Methods of predicting resistance to JAK inhibitor therapy” (Dana-Farber Cancer Institute, Inc., priority 2012, dated 2018).
At least one compound was matched to its structure with a doubt left.

Test system: BaF3.EpoR.JAK2V617F cells co-cultured with 1% cells containing the E985K or Y931C mutation
Type: cell-based, murine

`N#CC[C@H](C1CCCC1)n1cc(-c2ncnc3[nH]ccc23)cn1` [ruxolitinib] was tested, and the “share of sequence material containing the mutation after treatment” value was “more than half of the sequence material contained the E985K or Y931C mutation”.
